Test results reported in paper PMC10626543.

Protein sequences, listed by entry. Tags and fused reporters are not part of them. Residues count along the entry.
UniProt P48678, residues 1-647: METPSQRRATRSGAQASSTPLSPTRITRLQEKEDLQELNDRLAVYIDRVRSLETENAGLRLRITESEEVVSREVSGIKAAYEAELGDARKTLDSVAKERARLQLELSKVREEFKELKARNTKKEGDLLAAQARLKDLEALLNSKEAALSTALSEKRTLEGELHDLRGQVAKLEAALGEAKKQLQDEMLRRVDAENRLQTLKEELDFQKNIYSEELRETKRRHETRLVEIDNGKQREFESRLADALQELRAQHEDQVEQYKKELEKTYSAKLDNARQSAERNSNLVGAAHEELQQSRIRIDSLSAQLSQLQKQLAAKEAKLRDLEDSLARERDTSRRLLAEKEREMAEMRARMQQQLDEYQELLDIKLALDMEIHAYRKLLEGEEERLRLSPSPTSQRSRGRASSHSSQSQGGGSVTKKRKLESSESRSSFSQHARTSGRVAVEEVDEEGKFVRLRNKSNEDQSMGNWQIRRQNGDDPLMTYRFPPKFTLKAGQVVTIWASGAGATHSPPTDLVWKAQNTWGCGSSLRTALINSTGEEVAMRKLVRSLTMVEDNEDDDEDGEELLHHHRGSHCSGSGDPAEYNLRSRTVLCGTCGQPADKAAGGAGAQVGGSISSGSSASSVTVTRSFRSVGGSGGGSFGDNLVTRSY

B1: EH domain-containing protein 2 (protein, UniProt Q8BH64 1-543)
chain: MFSWLKKGGARGQRPEAIRTVTSSLKELYRTKLLPLEEHYRFGSFHSPALEDADFDGKPMVLVAGQYSTGKTSFIQYLLEQEVPGSRVGPEPTTDCFVAVMHGETEGTVPGNALVVDPEKPFRKLNPFGNTFLNRFMCAQLPNQVLESISIIDTPGILSGAKQRVSRGYDFPAVLRWFAERVDLIILLFDAHKLEISDEFSEAIGALRGHEDKIRVVLNKADMVETQQLMRVYGALMWALGKVVGTPEVLRVYIGSFWSQPLLVPDNRRLFELEEQDLFRDIQGLPRHAALRKLNDLVKRARLVRVHAYIISYLKKEMPTVFGKENKKKQLILKLPVIFAKIQLEHHISPGDFPDCQKMQELLMAHDFTKFHSLKPKLLEALDDMLAQDIAKLMPLLRQEELESVEAGVQGGAFEGTRMGPFVERGPDEAIEDGEEGSEDDAEWVVTKDKSKYDEIFYNLAPADGKLSGSKAKTWMVGTKLPNSVLGRIWKLSDVDRDGMLDDEEFALASHLIEAKLEGHGLPTNLPRRLVPPSKRRQKGSAE
B2: Sorbin and SH3 domain-containing protein 1 (protein, UniProt Q62417 1-1290)
chain: MSSECDVGSSKAVVNGLASGNHGPDKDMDPTKICTGKGTVTLRASSSYRGTPSSSPVSPQESPKHESKSGLEPEDPSADEWKLSSSADTNGNAQPSPLAAKGYRSVHPSLSADKPQGSPLLNEVSSSHIETDSQDFPPTSRPSSAYPSTTIVNPTIVLLQHNRDPASERRAGEQDPVPTPAELTSPGRASERRAKDASRRVVRSAQDLSDVSTDEVGIPLRNTERSKDWYKTMFKQIHKLNRDDDSDVHSPRYSFSDDTKSPLSVPRSKSEMNYIEGEKVVKRSATLPLPARSSSLKSSPERNDWEPLDKKVDTRKYRAEPKSIYEYQPGKSSVLTNEKMSRDISPEEIDLKNEPWYKFFSELEFGRPTNLEKDLSFCQAELEADLEKVETVNKSPSANSPQSSAVSPTPDITSEPPGYIYSSNFHAVKRESDGTPGGLASLENERQIYKSVLEGGDIPLQGLSGLKRPSSSASTKVDRKGGNAHMISSSSVHSRTFHTSNALGPGCKHKKPLSAAKACISEILPSKFKPRLSAPSALLQEQKSVLLPSEKAQSCENLCVSLNDSKRGLPLRVGGSIENLLMRSRRDYDSKSSSTMSLQEYGTSSRRPCPLSRKAGLHFSMFYRDMHQINRAGLSLGSISSSSVRDLASHFERSSLTLARGELGASQEGSEHIPKHTVSSRITAFEQLIQRSRSMPSLDFSGRLSKSPTPVLSRSGLTSARSAESLLESTKLRPREMDGMDSGGVYASPTCSNMADHALSFRSLVPSEPLSICSDELDHCSNVSNDSREGSGGSVHGDFPKHRLNKCKGTCPASYTRFTTIRKHEQQSSRQSDWRSDSRGDKNSLLRNIHLMSPLPFRLKKPLQQHPRQPPPSDSSESPAGQKADLPCHDPQDQPHSAGKPQVPTRLSSRHTMARLSHNSEPPLDRPAGLEDCTRAINNGNPVPYSDHGLDRNNNPQSELAAAHGDSESPRHFIPADYLESTEEFIRRRHDDKEKLLADQRRLKREQEEADIAARRHTGVIPTHHQFITNERFGDLLNIDDTAKRKSGLEMRPARAKFDFKAQTLKELPLQKGDVVYIYRQIDQNWYEGEHHGRVGIFPRTYIELLPPAEKAQPRKLAPVQVLEYGEAIAKFNFNGDTQVEMSFRKGERITLLRQVDENWYEGRIPGTSRQGIFPITYVDVLKRPLVKTPVDYIDLPYSSSPSRSATVSPQQPQAQQRRVTPDRSQPSLDLCSYQALYSYVPQNDDELELRDGDIVDVMEKCDDGWFVGTSRRTRQFGTFPGNYVKPLYL
B3: B cell CLL/lymphoma 9 protein (protein, UniProt Q9D219 1-1425)
chain: MHPSNPKVRSSPSGNTQSSPKSKQEVMVRPPTVMSPSGNPQLDSKFSNQGKPGGSASQSQPSPCDSKSGGHTPKALPGPGGSMGLKNGAGNGAKGKGKRERSISADSFDQRDPGTPNDDSDIKECNSADHIKSQESQHTPHSMTPSTATAPRSSTPSHGQTPAPEPISAQKTPAKVVYVFSTEMANKAAEAVLKGQVETIVSFHIQNISNSKSERSTAPLNTQIPTLRNDPKPLPQQPPAPANQDQNSSQNARLQPTPPIQAPAPKPTAAPRPLDRESPGVENKLIPPVGSPGSSTPLPPDGTGPNSTPNNRAVTPVSQGSNSSSADPKAPPPPPVSGGEPPTLGENPDGLSQEQLEHRERSLQTLRDIQRMLFPDEKEFTAGQTGGPQQNTGVLDGPQKKPDGPIQAMMSQSQSLGKGPGPRTDVGAPFGPQGHRDVPFSPDEMVPPNMSSQSGPIGPDHLDHMTPEQIAWLKLQQEFYEEKRRKQEQVVVQQCSLQDMMVHQHGPRGVVRGPPPPYQMAPGEGWAPGAEPFPDGINISHSLPPRGMAPHPNMPGSQMRLPGFAGMINSEMEGPNVPNPASRPGLSGVSWPDDVPKIPDGRNFPPGQGVFSGPGRGERFPNPQGLSEEMFQQQLAEKQLALPPGMSMEGIRPGMEMNRMIPGSQRHMEPGSNPIFPRIPVEGPLSPSRGDFPKGMPPQIGPGRELEFGMVPGGMKGEVNLNVNMGSSSQMIPQKMREAGAGPEEMMKLRPGSSEMLPAQQKMVPLPFGEHPQQEYGVGPRPFLPMSQGPGSNSGLRNLREPIGPDQRTNSRLSHMPPLPLNPSSNPTSLSTAPPVQRGLGRKPLDISVAGSQVHSPGINPLKSPTMHQVQSPMLGSPSGNLKSPQTPSQLAGMLAGPAAAASIKSPPVLGSAAASPVHLKSPSLPAPSPGWTSSPKPPLQSPGIPPNHKAPLTMASPAMLGSVESGGPPPPTASQPASVNIPGSLPSSTPYPMPPEPTLSQNPLSIMMSRMSKFAMPSSTPLYHDAIKTVASSDDDSPPARSPNLPSMNSMPGMGINTQNPRISGPNPVVPMPTLSPMGMTQPLSHSNQMPSPNAMGPSIPPHGVPMGPGLMSHNPIMGHGSQEPPMVPQGRMGFPQGFPPVQSPPQQVPFPHNGPTGGQGNFPGGIGFPGEGPLGRPSNLPQSSADPALCKPGGPGAPDSFTVLGNSMPSVFTDPDLQEVIRPGATGIPEFDLSRIIPSEKPSQTLQYFPRGEVPGRKQPQGPGPGFSHMQGMMSDQAPRMGLALPGMGGPGPVGTPDIPLGTSPSMPGHNPMRPPAFLQQGMMGPHHRMMSPAQSTVPGPATLMTNPAAAVGMIPGKDRGPAGLYTHPGPVGSPGMMMSMQGMMGPQQNIMIPPQMRPRGMAADVGMGGFSQGPGNPGNMMF
B4: Interferon gamma induced GTPase (protein, UniProt Q9DCE9 1-423)
chain: MDLVTKLPQNIWKTFTLFINMANYLKRLISPWSKSMTAGESLYSSQNSSSPEVIEDIGKAVTEGNLQKVIGIVKDEIQSKSRYRVKIAVTGDSGNGMSSFINALRFIGHEEEDSAPTGVVRTTKKPACYSSDSHFPYVELWDLPGLGATAQSVESYLEEMQISTFDLIIIVASEQFSSNHVKLAITMQRMRKRFYVVWTKLDRDLSTSTFPEPQLLQSIQRNIRENLQQAQVRDPPLFLISCFSPSFHDFPELRNTLQKDIFSIRYRDPLEIISQVCDKCISNKAFSLKEDQMLMKDLEAAVSSEDDTANLERGLQTYQKLFGVDDGSLQQVARSTGRLEMGSRALQFQDLIKMDRRLELMMCFAVNKFLRLLESSWWYGLWNVVTRYFRHQRHKLVIEIVAENTKTSLRKALKDSVLPPEIH
B5: Sorbin and SH3 domain-containing protein 2 (protein, UniProt Q3UTJ2 1-1180)
chain: MNTDSGGCARKRAAMSVTLTSVKRVQSSPNLLAAGRESQSPDSAWRSYNDRNPETLNGDATYSSLAAKGFRSVRPNLQDKRSPTQSQITINGNSGGAVSPVSYYQRPFSPSAYSLPASLNSSIIMQHGRSLDSAETYSQHAQSLDGTMGSSIPLYRSSEEEKRVTVIKAPHYPGIGPVDESGIPTAIRTTVDRPKDWYKTMFKQIHMVHKPGLYNSPYSAQSHPAAKTQTYRPLSKSHSDNGTDAFKEVPSPVPPPHVPPRPRDQSSTLKHDWDPPDRKVDTRKFRSEPRSIFEYEPGKSSILQHERPVSIYQSSIDRSLERPSSSASMAGDFRKRRKSEPAVGPLRGLGDQSSSRTSPGRADLPGSSSTFTKSFISSSPSSPSRAQGGDDSKMCPPLCSYSGLNGTPSGELECCNAYRQHLDVPGDSQRAITFKNGWQMARQNAEIWSSTEETVSPKIKSRSCDDLLNDDCDSFPDPKTKSESMGSLLCEEDSKESCPMTWASPYIQEVCGNSRSRLKHRSAHNAPGFLKMYKKMHRINRKDLMNSEVICSVKSRILQYEKEQQHRGLLHGWSQSSTEEVPRDVVPTRISEFEKLIQKSKSMPNLGDEMLSPITLEPPQNGLCPKRRFSIESLLEEETQVRHPSQGQRSCKSNTLVPIHIEVTSDEQPRTHMEFSDSDQDGVVSDHSDYVHVEGSSFCSESDFDHFSFTSSESFYGSSHHHHHHHHHHRHLISSCKGRCPASYTRFTTMLKHERAKHENMDRPRRQEMDPGLSKLAFLVSPVPFRRKKILTPQKQTEKAKCKASVVEALDSALKDICDQIKAEKRRGSLPDNSILHRLISELLPQIPERNSSLHALKRSPMHQPFHPLPPDGASHCPLYQNDCGRMPHSASFPDVDTTSNYHAQDYGSALSLQDHESPRSYSSTLTDLGRSASRERRGTPEKEKLPAKAVYDFKAQTSKELSFKKGDTVYILRKIDQNWYEGEHHGRVGIFPISYVEKLTPPEKAQPARPPPPVQPGEIGEAIAKYNFNADTNVELSLRKGDRIILLKRVDQNWYEGKIPGTNRQGIFPVSYVEVVKRNAKGAEDYPDPPLPHSYSSDRIYTLSSNKPQRPGFSHENIQGGGEPFQALYNYTPRNEDELELRESDVVDVMEKCDDGWFVGTSRRTKFFGTFPGNYVKRL
B6: Four and a half LIM domains protein 2 (protein, UniProt O70433 1-279)
chain: MTERFDCHHCNESLYGKKYILKEENPHCVACFEELYANTCEECGTPIGCDCKDLSYKDRHWHEGCFHCSRCGSSLVDKPFAAKEEQLLCTDCYSNEYSSKCQECKKTIMPGTRKMEYKGSSWHETCFTCQRCQQPIGTKSFIPKENQNFCVPCYEKQYALQCVQCKKPITTGGVTYREQPWHKECFVCTACKKQLSGQRFTARDEFPYCLTCFCDLYAKKCAGCTNPISGLGGTKYISFEERQWHNDCFNCKKCSLSLVGRGFLTERDDILCPDCGKDI
B7: Protein FAM210A (protein, UniProt Q8BGY7 1-273)
chain: MQWNVPRTMSRLALRTFVEAQKARLFDHHWRIKGPLLVHRGEYRVAWTPHLRKQWLHLSAVQCLAKQRNLLDAQPPQLGTLRQERWEQDILSKRVLSSSSTSQETPSEKKEETDPLQDKSISLYQRFKKTFRQYGKVLIPVHLITSGIWFGTFYYATIKGVNVIPFLEVIGLPDSIVDILKNSQSGNALTAYAMFKIATPARYTVTLGGTSFTVKYLRSHGYMSTPPPVKEYLQGRMEETKELITEKMEETKDRLTEKLQETKGKVSFKKKVE
B8: ADP/ATP translocase 2 (protein, UniProt P51881 1-298)
chain: MTDAAVSFAKDFLAGGVAAAISKTAVAPIERVKLLLQVQHASKQITADKQYKGIIDCVVRIPKEQGVLSFWRGNLANVIRYFPTQALNFAFKDKYKQIFLGGVDKRTQFWRYFAGNLASGGAAGATSLCFVYPLDFARTRLAADVGKAGAEREFKGLGDCLVKIYKSDGIKGLYQGFNVSVQGIIIYRAAYFGIYDTAKGMLPDPKNTHIFISWMIAQSVTAVAGLTSYPFDTVRRRMMMQSGRKGTDIMYTGTLDCWRKIARDEGSKAFFKGAWSNVLRGMGGAFVLVLYDEIKKYT

target: native lamin A/C (mouse (endogenous in heart, skeletal muscle and brain)) (UniProt P48678); assay: affinity purification with mass spectrometry; native lamin A/C immunoprecipitated with mAb 4C11 and Protein G Sepharose from sonicated heart lysates of old IL10-KO and control C57Bl/6 female mice (five each); 50 mM Tris pH 7.4, 300 mM NaCl, 0.3% Triton X-100, 4°C; TMT 10-plex

binding, binds:
B1, B2, B3, B4, B5, B6, B7, B8

Results are given in words; binding and its absence hold for the method and conditions named. In cells and extracts the contact can be indirect. These calls come from enrichment with a bait or labelling near it, and not all partners need be listed.
